The list shows only some results of the screen, not a fair sample: it gathers tests that were run many times, whatever their T/C, doses with no T/C, and many T/C values between a quarter and a half above the control. Further doses and runs are listed elsewhere. T/C is the treated group as % of the vehicle group. Some doses have a count of surviving animals in place of a T/C: the source holds a T/C of zero for them, seemingly a mark for toxic or unscored doses. Some doses without a T/C left all or most animals alive at the check, yet need not have been tolerated: the source hardly ever lists a survival T/C far under the control, and the zero likely stands for such cases as well. Survivors were counted at the toxicity check, usually on the fifth day, unless a day is given; later deaths do not show. Schedules are NCI's codes, taken here to give the interval after Q, in days (D) or hours (H), and the number of doses after X. For survival time, the PubChem record calls one and a half times the control and up active, and a quarter to a half above the control has no call in these data; cut-offs in other NCI protocols can differ. Brackets with × stand for listed records that agree. Some entries were tested several times; the results are listed from low to high. Some T/C values carry the count of animals alive at the toxicity check (mostly the fifth day); without a count, all were alive then.
Tested on: CD2F1 mice, L1210 leukemia ip, survival T/C
Test: NCI In Vivo Anticancer Drug Screen. Data for tumor model L1210 Leukemia (intraperitoneal) in CD2F1 (CDF1) mice
Conditions: higher T/C = longer survival
Method in brief: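 Ratio T/C, where T is the treated-group value and C the vehicle-dosed control value, from mice implanted with a transplantable tumor.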

[1] = T/C endpoint: mean survival time, dose: 200.0 mg/kg/injection, schedule: Q01DX009 (ip), vehicle: saline
[2] = T/C endpoint: mean survival time, dose: 100.0 mg/kg/injection, schedule: Q01DX009 (ip), vehicle: saline
[3] = T/C endpoint: mean survival time, dose: 200.0 mg/kg/injection, schedule: Q04DX003 (ip), vehicle: saline with Tween-80
[4] = T/C endpoint: mean survival time, dose: 400.0 mg/kg/injection, schedule: Q04DX003 (ip), vehicle: saline with Tween-80
[5] = T/C endpoint: mean survival time, dose: 200.0 mg/kg/injection, schedule: Q01DX001 (ip), vehicle: saline with Tween-80
[6] = T/C endpoint: mean survival time, dose: 400.0 mg/kg/injection, schedule: Q01DX001 (ip), vehicle: saline with Tween-80
[7] = T/C endpoint: mean survival time, dose: 400.0 mg/kg/injection, schedule: Q01DX009 (ip), vehicle: saline with Tween-80
[8] = T/C endpoint: mean survival time, dose: 100.0 mg/kg/injection, schedule: Q01DX009 (ip), vehicle: saline with Tween-80
[9] = T/C endpoint: mean survival time, dose: 100.0 mg/kg/injection, schedule: Q01DX001 (ip), vehicle: saline with Tween-80
[10] = T/C endpoint: mean survival time, dose: 200.0 mg/kg/injection, schedule: Q01DX009 (ip), vehicle: saline with Tween-80

CC12CCC(=O)C=C1CCCC2=O (centres undefined)
survivor count [1]: 2 of 6

ClCC(Cl)CN1CCCCC1 (centres undefined)
survivor count [2]: 0 of 6

O=C([O][Hg][C](F)(F)F)C(F)(F)F
survivor count (T/C endpoint: mean survival time, dose: 12.5 mg/kg/injection, schedule: Q04DX003 (ip), vehicle: saline): 1 of 3
survivor count (T/C endpoint: mean survival time, dose: 25.0 mg/kg/injection, schedule: Q04DX003 (ip), vehicle: saline): 0 of 3
survivor count (T/C endpoint: mean survival time, dose: 100.0 mg/kg/injection, schedule: Q04DX003 (ip), vehicle: saline with Tween-80): 0 of 3
survivor count [3]: 0 of 3
survivor count [4]: 0 of 3

COc1ccc(/C=C/C(CC(NO)c2ccc(OC)cc2)=N/O)cc1 (centres undefined)
survivor count [5]: 3 of 3
survivor count [6]: 3 of 3

CCCCCCCCCCCCCCCCCCSC1=CC(=O)C(OC)=C(OC)C1=O
survivor count (T/C endpoint: mean survival time, dose: 12.5 mg/kg/injection, schedule: Q01DX009 (ip), vehicle: Klucel (hydroxypropylcellulose) (HPC)): 6 of 6
survivor count (T/C endpoint: mean survival time, dose: 25.0 mg/kg/injection, schedule: Q01DX009 (ip), vehicle: Klucel (hydroxypropylcellulose) (HPC)): 6 of 6

N#C/C=C1\NC(=O)CS1
survivor count [7]: 0 of 6

CCN1CCCC(Nc2nc(Nc3cc(Cl)cc(Cl)c3)nc3ccc(Cl)cc23)C1 (centres undefined)
survivor count (T/C endpoint: mean survival time, dose: 50.0 mg/kg/injection, schedule: Q01DX009 (ip), vehicle: saline with Tween-80): 1 of 6
survivor count [8]: 3 of 6
survivor count [3]: 3 of 6
survivor count [4]: 0 of 6

CN(C)C(=O)c1cccc(NC(=O)NCc2cccc(N3C(N)=NC(N)=NC3(C)C)c2)c1
survivor count [2]: 3 of 6

C=CCN(C)N=Nc1ccc(C(N)=O)cc1
T/C (T/C endpoint: mean survival time, dose: 75.0 mg/kg/injection, schedule: Q01DX009 (ip), vehicle: Klucel (hydroxypropylcellulose) (HPC)): 134 % of control

CC[P+]1(c2ccccc2)CCCc2ccc3ccccc3c21 (centres undefined)
survivor count (T/C endpoint: mean survival time, dose: 50.0 mg/kg/injection, schedule: Q04DX003 (ip), vehicle: saline): 0 of 6

COc1cccc2c1C(=O)c1c(O)c3c(c(O)c1C2=O)CC(O)(/C(C)=N/NC(=O)CCCCC(=O)N/N=C(\C)C1(O)Cc2c(O)c4c(c(O)c2C(OC2CC(N)C(O)C(C)O2)C1)C(=O)c1c(OC)cccc1C4=O)CC3OC1CC(N)C(O)C(C)O1 (centres undefined)
T/C (T/C endpoint: median survival time, dose: 1.5 mg/kg/injection, schedule: Q01DX009 (ip), vehicle: water): 128 % of control
T/C (T/C endpoint: median survival time, dose: 3.0 mg/kg/injection, schedule: Q01DX009 (ip), vehicle: water): 126 % of control (2×)
T/C (T/C endpoint: median survival time, dose: 6.0 mg/kg/injection, schedule: Q01DX009 (ip), vehicle: water): 128 and 137 % of control
T/C (T/C endpoint: median survival time, dose: 12.0 mg/kg/injection, schedule: Q01DX009 (ip), vehicle: water): 134 and 141 % of control
survivor count (T/C endpoint: median survival time, dose: 24.0 mg/kg/injection, schedule: Q01DX009 (ip), vehicle: water): 4 of 6

CC1(C)OCC(CO)([N+](=O)[O-])CO1
survivor count [3]: 0 of 6
survivor count (T/C endpoint: mean survival time, dose: 300.0 mg/kg/injection, schedule: Q04DX003 (ip), vehicle: saline with Tween-80): 0 of 6

COc1cccc2c1C(=O)c1c(O)c3c(c(O)c1C2=O)C[C@@](O)(/C(C)=N/NC(=O)c1ccc(Cl)cc1)C[C@@H]3OC1CC(N)C(O)C(C)O1 (some centres undefined)
T/C (T/C endpoint: mean survival time, dose: 1.0 mg/kg/injection, schedule: Q01DX009 (ip), vehicle: saline): 134 % of control
T/C (T/C endpoint: mean survival time, dose: 4.0 mg/kg/injection, schedule: Q01DX009 (ip), vehicle: saline): 146 % of control
T/C (T/C endpoint: mean survival time, dose: 4.0 mg/kg/injection, schedule: Q01DX009 (ip), vehicle: suspension in saline): 133 % of control
T/C (T/C endpoint: mean survival time, dose: 8.0 mg/kg/injection, schedule: Q01DX009 (ip), vehicle: saline): 138 % of control
T/C (T/C endpoint: mean survival time, dose: 8.0 mg/kg/injection, schedule: Q01DX009 (ip), vehicle: suspension in saline): 127 % of control
T/C (T/C endpoint: mean survival time, dose: 16.0 mg/kg/injection, schedule: Q01DX009 (ip), vehicle: suspension in saline): 147 % of control

Nc1ccc(N=Nc2cccnc2)cc1
survivor count (T/C endpoint: mean survival time, dose: 400.0 mg/kg/injection, schedule: Q04DX002 (ip), vehicle: other): 1 of 3

C1SCC12CSC2
survivor count [9]: 0 of 3
survivor count [5]: 0 of 3
survivor count [6]: 0 of 3

CCCCCCCCCCCCCCCCS(=O)CC(O)COC(=O)c1ccc(C(=O)OCC(O)CS(=O)CCCCCCCCCCCCCCCC)cc1 (centres undefined)
survivor count (T/C endpoint: mean survival time, dose: 400.0 mg/kg/injection, schedule: Q01DX009 (ip), vehicle: saline + Tween-80 + alcohol): 3 of 6

Cc1cc(C)c([S-])c(C)c1.[Cu+]
survivor count (T/C endpoint: mean survival time, dose: 18.8 mg/kg/injection, schedule: Q04DX003 (ip), vehicle: saline): 3 of 6

Clc1cccc(Cl)c1C(Nc1nncs1)Nc1nncs1
T/C (T/C endpoint: median survival time, dose: 50.0 mg/kg/injection, schedule: Q01DX005 (ip), vehicle: saline with Tween-80): 131 % of control
T/C (T/C endpoint: median survival time, dose: 100.0 mg/kg/injection, schedule: Q01DX005 (ip), vehicle: saline with Tween-80): 134 % of control
T/C (T/C endpoint: median survival time, dose: 200.0 mg/kg/injection, schedule: Q01DX005 (ip), vehicle: saline with Tween-80): 148 % of control [4 of 5 alive]
survivor count (T/C endpoint: median survival time, dose: 667.0 mg/kg/injection, schedule: Q01DX005 (ip), vehicle: saline with Tween-80): 3 of 6
survivor count (T/C endpoint: median survival time, dose: 1111.0 mg/kg/injection, schedule: Q01DX005 (ip), vehicle: saline with Tween-80): 2 of 6

FC(F)(F)c1ccc(Cl)c(N=C=S)c1
survivor count (T/C endpoint: mean survival time, dose: 400.0 mg/kg/injection, schedule: Q04DX002 (ip), vehicle: saline with Tween-80): 0 of 3

O=c1[nH]c(Cc2ccccc2)c(N=Nc2ccccc2)c(=O)[nH]1
survivor count [9]: 6 of 6

CC[CH2][Sn]([CH2]CC)([CH2]CCC#N)[O]C(C)=O
survivor count (T/C endpoint: mean survival time, dose: 0.78 mg/kg/injection, schedule: Q01DX009 (ip), vehicle: saline): 2 of 3

COC1CCC2=C(C1)C(=O)CC1c3ccccc3CN21 (centres undefined)
survivor count [3]: 1 of 6
survivor count [4]: 0 of 6

CC(Br)C1(c2ccccc2)OCCO1 (centres undefined)
survivor count [10]: 3 of 6
survivor count [7]: 0 of 6

CN1CCCN(C)C1c1cc(Cl)ccc1O
survivor count [8]: 2 of 6
survivor count [10]: 1 of 6
survivor count [7]: 0 of 6

CC(=O)Oc1ccc(OC(C)=O)c2c1C(=O)C=CC2=O
survivor count (T/C endpoint: mean survival time, dose: 1.56 mg/kg/injection, schedule: Q04DX002 (ip), vehicle: alcohol): 3 of 3

CC(CP(=O)(c1ccccc1)c1ccccc1)C(O)(C(=O)c1ccccc1)c1ccccc1 (centres undefined)
survivor count [7]: 3 of 6

CC1CC(O)C([N+](=O)[O-])C(O)C1 (centres undefined)
survivor count [2]: 0 of 6
survivor count [1]: 0 of 6
survivor count (T/C endpoint: mean survival time, dose: 400.0 mg/kg/injection, schedule: Q01DX009 (ip), vehicle: saline): 0 of 6

CCC1=CC(C)(C)CC(C)=C1 (tested in a mixture with another compound)
survivor count [10]: 1 of 6

From PubChem BioAssay AID256 (DTP/NCI, 2004)
